Experimental data from the supplement of paper PMC12889115.
Some of the results follow. Values are raw readings; no control value is given beside them.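 In the initial screen, polymyxin B was used at a concentration that permeabilizes Salmonella's outer membrane but not its inner membrane. Maximum growth was set by DMSO wells with or without polymyxin B. Since plates varied, data were ranked per plate, and compounds giving the lowest OD600 advanced as hits.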

Test system: Salmonella enterica serovar Typhimurium SL1344
Test: bacterial growth OD600 after 18 h with compound and polymyxin B; higher = more bacterial growth (less inhibition)
Settings: 50 µM, Mueller-Hinton broth

Compound: OC1(Cc2cc(-c3ccccc3)no2)CCN(Cc2ccc3c(c2)OCCO3)CC1
- bacterial growth OD600 (polymyxin B 1 µg/mL): 0.892

Compound: CCO[C@H]1[C@H](NC(=O)c2cccnc2)c2ccccc2C12CCN(C(=O)c1ccccc1)CC2
- bacterial growth OD600 (polymyxin B 0.75 µg/mL): 0.765

Compound: CCC(O)C1CCN(C(=O)CN2Cc3ccccc3OC(c3ccccc3F)C2)CC1 (stereo not given)
- bacterial growth OD600 (polymyxin B 0.75 µg/mL): 0.539

Compound: O=C(CC(c1ccccc1)c1ccc(Cl)cc1)NCCN1CCOC1=O (stereo not given)
- bacterial growth OD600 (polymyxin B 1 µg/mL): 0.913

Compound: O=C1CCCN1CC(=O)N1CCOC(CCCc2ccccc2)C1 (stereo not given)
- bacterial growth OD600 (polymyxin B 0.75 µg/mL): 0.859

Compound: COc1cccc(OCC(O)CNC2CCN(c3ccc(NC(=O)C4CCCC4)cc3)CC2)c1 (stereo not given)
- bacterial growth OD600 (polymyxin B 0.75 µg/mL): 0.801

Compound: CCc1csc(CNC(=O)c2ccc(NC)nc2)n1
- bacterial growth OD600 (polymyxin B 1 µg/mL): 0.877

Compound: CC(=O)N1CCC(Oc2ccc(C(=O)NC3CCCC3)cc2Cl)CC1
- bacterial growth OD600 (polymyxin B 1 µg/mL): 1.15

Compound: CCN(CC)CCNC(=O)c1ccc(OC2CCN(C(=O)C3CC3)CC2)cc1
- bacterial growth OD600 (polymyxin B 1 µg/mL): 0.832

Compound: COC(=O)Cn1cc(CN2CC[C@@H](N3CCOCC3)[C@H](O)C2)c2ccccc21
- bacterial growth OD600 (polymyxin B 0.75 µg/mL): 0.925

Compound: COc1ccnc(N2CCC(C3CCN(Cc4cccnc4)CC3)C2)n1 (stereo not given)
- bacterial growth OD600 (polymyxin B 0.75 µg/mL): 0.82

Compound: O=C(CCOc1ccccc1)Nc1ccnn1C1CCN(C2CCCC2)CC1
- bacterial growth OD600 (polymyxin B 0.75 µg/mL): 0.824

Compound: CCC(COC)NC(=O)c1ccc2oc(Cc3ccc(Cl)cc3)nc2c1 (stereo not given)
- bacterial growth OD600 (polymyxin B 1 µg/mL): 1.05

Compound: O=C(CC(c1ccccc1)c1ccccc1Cl)NCCN1CCOC1=O (stereo not given)
- bacterial growth OD600 (polymyxin B 1 µg/mL): 0.939

Compound: O=C(c1cccnc1)C1CCCN(Cc2nc(-c3ccc4c(c3)OCO4)no2)C1 (stereo not given)
- bacterial growth OD600 (polymyxin B 1 µg/mL): 0.901

Compound: O=C(NCCN1CCOCC1)C1CCC(=O)N(CCCc2ccccc2)C1 (stereo not given)
- bacterial growth OD600 (polymyxin B 1 µg/mL): 1.03

Compound: O=C(CC(c1cccc(O)c1)c1cccc(Cl)c1)NCc1n[nH]c2c1CCC2 (stereo not given)
- bacterial growth OD600 (polymyxin B 1 µg/mL): 0.504

Compound: c1ccc(CCC2CCCN(Cc3cccnc3)C2)cc1 (stereo not given)
- bacterial growth OD600 (polymyxin B 0.75 µg/mL): 0.822

Compound: COc1ccc(OC2CCN(C(C)=O)CC2)c(C(=O)NCCc2ccccc2OC)c1
- bacterial growth OD600 (polymyxin B 1 µg/mL): 1.13

Compound: O=C(NCCc1ccccc1)N1C[C@H]2OC(=O)N(Cc3ccccn3)[C@H]2C1
- bacterial growth OD600 (polymyxin B 0.75 µg/mL): 0.97
